Record: PubChem BioAssay AID1159578 (Peter MacCallum Cancer Centre, 2015)
Purpose: 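Knock-downs that alter how fast lymphatic endothelial cells migrate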 (primary screen). Cell system: human lymphatic endothelial cells. Reagent: siRNA pool against human genes, 40 nM. Timing: 48 h after transfection. Measurement: 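Cells stained with dye and imaged after a scratch; covered wound area and nuclei counted, duplicates averaged, migration set against mock wells and turned into a robust z-score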. Scale: migration robust z-score: higher = faster migration into the scratch; migration relative to mock: higher = more scratch area covered than mock; nuclei per well: higher = more cells in the well. Active means: 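Migration changed when robust z exceeds 2 or falls below -2 and mean nuclei number is at least 3300; otherwise not called changed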. Calls: active = migration changed; inactive = no migration change, or too few cells.
The whole screen tested about 18,000 reagents; below is an unselected part. About 1,030 of them (5.7%) were called active. 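Inactive calls also include pools with fewer than 3300 nuclei, whose migration was not assessed.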 Raw values are not corrected between plates.

gene,PubChem SID,migration robust z-score,migration class with cell-count check,migration relative to mock,"nuclei per well, duplicate mean",call
CKLF,SID255357549,0.48,migration z between -2 and 2; enough cells,1.01,5798,inactive
CSF1R,SID255349114,-2.9,under 3300 nuclei; migration not judged,0.24,2323,inactive
COQ10A,SID255362053,-1.45,migration z between -2 and 2; enough cells,0.51,6140,inactive
MFAP4,SID255350946,-0.67,migration z between -2 and 2; enough cells,0.71,5849,inactive
ANXA9,SID255353539,-1.38,migration z between -2 and 2; enough cells,0.54,4954,inactive
PUS3,SID255361012,1.58,migration z between -2 and 2; enough cells,1.11,6176,inactive
FAM20C,SID255359205,0.44,migration z between -2 and 2; enough cells,1,5360,inactive
ZNF710,SID255365328,-1.89,migration z between -2 and 2; enough cells,0.4,5948,inactive
SANBR,SID255361404,-0.14,migration z between -2 and 2; enough cells,0.84,5138,inactive
ITIH3,SID255350560,-0.72,migration z between -2 and 2; enough cells,0.7,5458,inactive
CLCN3,SID255348951,0.64,migration z between -2 and 2; enough cells,0.93,6514,inactive
SLC9C2,SID255364794,0.42,migration z between -2 and 2; enough cells,0.88,5029,inactive
AARD,SID255365940,0.92,migration z between -2 and 2; enough cells,1.12,5677,inactive
SERF2,SID255354866,0.05,migration z between -2 and 2; enough cells,0.9,5100,inactive
EFNB1,SID255349446,-1.31,migration z between -2 and 2; enough cells,0.55,5220,inactive
PLAA,SID255354229,-1.72,migration z between -2 and 2; enough cells,0.48,3834,inactive
SEPTIN12,SID255362611,0.72,migration z between -2 and 2; enough cells,1.07,4596,inactive
DOC2A,SID255353559,-1.01,migration z between -2 and 2; enough cells,0.63,6307,inactive
SNRPN,SID255352557,0.08,migration z between -2 and 2; enough cells,0.9,5396,inactive
TMEM248,SID255358386,0.66,migration z between -2 and 2; enough cells,1.06,5208,inactive
H2AC12,SID255361647,0.8,migration z between -2 and 2; enough cells,1.09,5919,inactive
COPZ1,SID255355791,-0.62,migration z between -2 and 2; enough cells,0.72,5862,inactive
ATG4D,SID255361621,-0.08,migration z between -2 and 2; enough cells,0.79,5356,inactive
MCUR1,SID255359782,-0.99,migration z between -2 and 2; enough cells,0.63,6668,inactive
TH,SID255352853,-0.16,migration z between -2 and 2; enough cells,0.78,5834,inactive
XKRYP7,SID255365302,-0.52,migration z between -2 and 2; enough cells,0.75,4556,inactive
OTUD6A,SID255363079,1.02,migration z between -2 and 2; enough cells,1.15,5643,inactive
RAB29,SID255353930,-0.75,migration z between -2 and 2; enough cells,0.69,5794,inactive
SNRNP25,SID255360335,-1.09,migration z between -2 and 2; enough cells,0.6,4648,inactive
ACVR1,SID255348164,-1.33,migration z between -2 and 2; enough cells,0.55,3704,inactive
CACNA2D2,SID255354148,0.13,migration z between -2 and 2; enough cells,0.83,5098,inactive
S1PR4,SID255353746,2.38,migration z above 2; enough cells,1.27,5314,active
WDR18,SID255359383,-0.15,migration z between -2 and 2; enough cells,0.84,5449,inactive
CCL15,SID255352329,0.66,migration z between -2 and 2; enough cells,1.06,4556,inactive
CREB3L1,SID255361878,0.2,migration z between -2 and 2; enough cells,0.94,5680,inactive
MUC20,SID255364058,0.23,migration z between -2 and 2; enough cells,0.94,6758,inactive
COX5A,SID255354233,-0.9,migration z between -2 and 2; enough cells,0.66,5890,inactive
DYNLRB1,SID255361053,-0.32,migration z between -2 and 2; enough cells,0.74,4305,inactive
ATP1B4,SID255356245,0.15,migration z between -2 and 2; enough cells,0.92,6684,inactive
TMEM41B,SID255365884,1.06,migration z between -2 and 2; enough cells,1.16,5138,inactive
PLXDC2,SID255361560,-3.85,migration z below -2; enough cells,-0.11,4940,active
RPL9,SID255352169,-1.86,migration z between -2 and 2; enough cells,0.4,4146,inactive
DEFA3,SID255349280,-4.23,migration z below -2; enough cells,-0.21,5398,active
SLC1A7,SID255352444,-0.1,migration z between -2 and 2; enough cells,0.78,4903,inactive
CHST12,SID255358654,-1.12,migration z between -2 and 2; enough cells,0.59,3845,inactive
ECSCR,SID255366068,0.1,migration z between -2 and 2; enough cells,0.91,6116,inactive
HSPBP1,SID255356385,0.06,migration z between -2 and 2; enough cells,0.9,7235,inactive
GAGE4,SID255349808,-0.78,migration z between -2 and 2; enough cells,0.68,5496,inactive
CAPZB,SID255348693,-1.18,migration z between -2 and 2; enough cells,0.58,3932,inactive
FHOD3,SID255360701,-0.58,migration z between -2 and 2; enough cells,0.74,4450,inactive
INTS4,SID255361980,-0.38,migration z between -2 and 2; enough cells,0.79,5504,inactive
PRR34,SID255358551,-1.93,migration z between -2 and 2; enough cells,0.38,4860,inactive
SAMD13,SID255363383,-0.58,migration z between -2 and 2; enough cells,0.74,5599,inactive
HSF2,SID255350326,0.72,migration z between -2 and 2; enough cells,0.94,5187,inactive
SSX5,SID255352653,0.44,migration z between -2 and 2; enough cells,0.89,4562,inactive
FRAS1,SID255360669,0.41,migration z between -2 and 2; enough cells,0.99,5386,inactive
HTRA1,SID255351859,-1.32,migration z between -2 and 2; enough cells,0.55,5360,inactive
